This passage reports binding results from PMC6191436.

Protein sequences, listed by entry. Tags and fused reporters are not part of them.
UniProt P14635: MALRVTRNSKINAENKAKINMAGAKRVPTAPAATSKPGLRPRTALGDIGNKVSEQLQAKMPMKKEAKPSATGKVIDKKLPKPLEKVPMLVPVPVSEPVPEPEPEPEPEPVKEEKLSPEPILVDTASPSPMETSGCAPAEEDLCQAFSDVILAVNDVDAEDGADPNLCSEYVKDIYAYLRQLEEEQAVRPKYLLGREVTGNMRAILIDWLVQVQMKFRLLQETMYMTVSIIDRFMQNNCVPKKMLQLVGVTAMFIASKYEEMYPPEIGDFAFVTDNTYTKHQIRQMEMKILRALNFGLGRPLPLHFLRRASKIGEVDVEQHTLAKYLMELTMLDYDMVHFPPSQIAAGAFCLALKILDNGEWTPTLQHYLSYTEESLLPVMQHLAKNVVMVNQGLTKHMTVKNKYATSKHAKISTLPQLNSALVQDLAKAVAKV

This test addresses His-tagged BRCA1-Δ11 (UniProt P38398). The test can be described thus: affinity purification with mass spectrometry; His-tagged BRCA1-Δ11 expressed in MCF7 cells, with or without irradiation; extracts on Ni-NTA affinity chromatography; eluates on SDS-PAGE, silver staining; band identified by MALDI-TOF mass spectrometry.

These are yes or no findings as the source states them, for the method shown. Binding seen in cells or lysates may run through a third protein. These calls come from enrichment with a bait or labelling near it, and not all partners need be listed.

In the case of “cyclin B1 (endogenous, MCF7) (from UniProt P14635 1-433)”, the binding result is “binds”.
